Assay results reported in PubChem BioAssay AID1728 (National Center for Advancing Translational Sciences (NCATS), 2009).
Values joined by “and” are separate entries in the source; they are usually repeats but may differ in a detail not shown here. Identical values can stand only once. Inconclusive means that the source gave no clear call. Such entries were picked first, then a sample of the others. A potency beside an inconclusive call is a rough fit, not a confirmed value. Active and inactive are the calls of the source. Calls come from the whole dose curve; as a rule, active = well fitted curve in the direction sought with a large enough effect; inconclusive = small, poorly fitted or top-dose-only effect, or another doubt; inactive = no such curve, though single readings can be large or run the other way.

What follows are compounds tested against RAF proto-oncogene serine/threonine-protein kinase (Homo sapiens) (UniProt P04049) (assay: Assay for Inhibitors of the ERK Signaling Pathway using a Homogeneous Screening Assay: c-Raf Inhibition). Conditions: homogeneous biochemical assay; series mostly up to 76.9 µM; activity change, negative = inhibition: at the top concentration.
Description: qHTS Assay for Inhibitors of the ERK Signaling Pathway using a Homogeneous Screening Assay
NIH Chemical Genomics Center [NCGC]
NIH Molecular Libraries Screening Centers Network [MLSCN]
Assay Submitter (PI): Dr. Wei Zheng, NCGC/NIH
The Ras/extracellular-signal-regulated kinase (ERK) mitogen activated protein (MAP) kinase signaling pathway (ERK1/2 cascade) plays is a key role in transmitting signals from the cell surface to the nucleus (Nishida and Gotoh 1993; Chang and Karin, 2001). The cascade is initiated by the small G-protein Ras, which recruits Raf […], where activation occurs. Alternatively, this pathway can be activated by elevating intracellular cAMP.
Activation of the ERK pathway is essential in increased cell division and cell survival. Sustained and constitutive activation of the ERK pathway, however, has been linked to uncontrolled cell proliferation, increased cell survival, and tumor progression. Thus, the ERK has been as an attractive target for cancer chemotherapy in the past few years (Sebolt-Leopold and Herrera, 2004). Given its physiological and pathological importance, assessment of ERK phosphorylation has been broadly performed in both basic research and drug discovery. Most assays for the measurement of ERK phosphorylation use the antibody-based detection methods, such as western blot and ELISA. These assays require multiple reagent additions with cell wash steps and are not suitable for high-throughput screening.
The current cell-based ERK phosphorylation assay was performed using AlphaScreen platform. AlphaScreen is a two bead-based proximity-dependent chemical energy transfer luminescent assay platform. The assay reagents (ERK SureFire(TM) kit) were supplied from TGR BioSciences (Australia). In the presence of specific antibodies, phosphorylated ERK will bring "donor" and "acceptor" beads to a proximity range (<200 nm), and subsequently lead a chemical luminescent reaction upon exciting donor beads with 680 nm laser. To validate pathway hits from the cell-based assay, enzyme assays consisting of EGFR tyrosine kinase, Raf and MEK were used as a means of deciphering the enzymes of target for the prioritized group of compounds derived from the HEK-293 cell based assay. The compounds were tested against significant members of the ERK signaling pathway EGFR and EGFR mutants (EGFR L858R, EGFR T790M, and EGFR L858R T790M). In order to establish the specificity of the prioritized compounds for EGFR and EGFR mutants, the compounds were also assayed against other important ERK signaling pathway enzymes, c-RAF and MEK-1.
NCGC Assay Protocol Summary:
The HTRF kinase assay (components supplied as kit by Cisbio) was chosen for the EGFR and EGFR mutant enzyme assays that applied the time resolved fluorescence resonance energy transfer (TR-FRET) principle. A peptide substrate is labeled with a biotin that can bind to XL665 labeled streptavidin and the anti-phosphoresidue antibody is labeled with Eu+. Upon phosphorylation of the substrate, the antibody binds to phosphorylated substrate that enables TR-FRET detection in homogenous assay format.
An HTRF Kinease TK assay kit (Cisbio, Bedford, MA) was used to develop the MEK assay (Harbert et al., 2008. Harbert C, Marshall J, Soh S, Steger K. Development of a HTRF Kinase Assay for Determination of Syk Activity. Current Chemical Genomics. 1: 20-26. 2008). MEK protein was obtained from Invitrogen. The assay buffer was composed of 50 mM HEPES (pH 7.0), 5 mM MgCl2, 5mM DTT, 0.1 % NaN3, 0.1 % BSA and 0.1 mM orthovanadate.
The HTRF assays were preformed according to the HTRF Kinease TK kit. Optimization for each enzyme was preformed in 384 well format (data not included). All reagents were dispensed into 1536 well plates.
(1) Enzyme, 2 nl MEK at 3 nM final
(2) Compound, 22 nl, Library Compounds in 0.128 to 10 mM titration series or control
(3) Reagent, 1.5 ul 10 uM ATP and 0.25 uM substrate final
(4) Incubation for 30 min, Ambient conditions
(5) Reagent, 3 ul antibody and XL-665
[…]
In the case of `Cc1ccc(Nc2ncnc3sc(C)c(C)c23)cc1C`, the Potency is reported as inconclusive: 20 µM [inhibitor, full curve, poor fit]. In the case of `COc1ccc(-c2nc3cnc(N(C)C)nc3n(CCc3ccccc3)c2=O)cc1`, the “activity change, negative = inhibition” value is reported as inactive: 1.36%. With `c1ccc(Nc2ncnc3sc4c(c23)CCC4)cc1` the “activity change, negative = inhibition” value was inactive: -31.6%. With `COc1cccc(/C=N/Nc2cc(-n3nc(C)cc3-c3ccccc3)ncn2)c1O` the Potency was inconclusive: 15.8 µM [inhibitor, full curve, poor fit]. In the case of `CC(=O)N1CCC(=NNc2nc3ccccc3s2)CC1`, the Potency is reported as inconclusive: 50.1 µM [inhibitor, single point]. `COc1cc2ncnc(Nc3cccc(Cl)c3)c2cc1OC` was tested, and the Potency was inconclusive: 4.47 µM [inhibitor, full curve] and inconclusive: 31.6 µM [inhibitor, partial curve]. For `Fc1ccc(Nc2ncnc3sc4c(c23)CCC4)cc1`, the Potency was inconclusive: 44.7 µM [inhibitor, partial curve, poor fit]. In the case of `CCCNc1ncnc2sc(C)c(C)c12`, the Potency is reported as inconclusive: 31.6 µM [inhibitor, partial curve, poor fit]. In the case of `O=c1cc(-c2ccc(O)cc2)oc2cccc(O)c12`, the Potency is reported as inconclusive: 14.1 µM [inhibitor, partial curve]. For `Cc1ccc(NNc2c(C)nc3ccccc3nc2=O)cc1`, the “activity change, negative = inhibition” value was inactive: -5.77%. In the case of `O=[N+]([O-])c1ccccc1N/N=C/c1ccc2c(c1)OCO2`, the “activity change, negative = inhibition” value is reported as inactive: -9.8%. With `Fc1ccc(Nc2ncnc3sc4c(c23)CCC4)cc1F` the Potency was inconclusive: 39.8 µM [inhibitor, single point]. `CC(/C=C/c1ccccc1)=N\Nc1ccccc1[N+](=O)[O-]` was tested, and the “activity change, negative = inhibition” value was inactive: -2.96%. In the case of `CN(C)c1ccc(Nc2c3c4c(cccc4n(C)c2=O)C(=O)c2ccccc2-3)cc1`, the “activity change, negative = inhibition” value is reported as inactive: -9.46%. With `O=C1c2ccc(O)c(O)c2C(=O)c2c(O)ccc(O)c21` the Potency was inconclusive: 12.6 µM [inhibitor, partial curve, poor fit]. With `COc1ccc(N=C2C(=Nc3ccc(OC)cc3)N(c3ccc(OC)cc3)C(=S)N2C)cc1` the “activity change, negative = inhibition” value was inactive: 5.65%. `Cc1cc(-c2ccccc2)n(-c2cc(N/N=C/c3ccccc3O)ncn2)n1` was tested, and the “activity change, negative = inhibition” value was inactive: -7.28%. With `CN(C)c1cc2c(Nc3ccc4c(cnn4Cc4ccccc4)c3)ncnc2cn1` the Potency was inconclusive: 28.2 µM [inhibitor, partial curve, poor fit]. For `CCn1c(=O)c2[nH]c(-c3ccccc3)nc2n(CC)c1=O`, the “activity change, negative = inhibition” value was inactive: -12.5%. In the case of `O=C1c2ccccc2C(=O)c2c1cccc2N1CCCC1`, the Potency is reported as inconclusive: 25.1 µM [inhibitor, partial curve]. `COc1cc2ncnc(NCc3cccc(Cl)c3)c2cc1OC` was tested, and the Potency was inconclusive: 31.6 µM [inhibitor, partial curve, poor fit]. For `Cn1nc(-c2ccc(Cl)cc2)nc2c(=O)n(C)c(=O)nc1-2`, the Potency was inconclusive: 3.55 µM [inhibitor, full curve]. `N#CC(C#N)=C1C=CC=CN1/C(=C\c1ccco1)C(=O)c1ccc(Br)cc1` was tested, and the Potency was inconclusive: 31.6 µM [inhibitor, partial curve, poor fit]. With `Cc1nc2ccccc2nc(=O)c1NNc1ccccc1` the “activity change, negative = inhibition” value was inactive: -5.88%. `Cc1cccc(CNc2ncnc3ccc(-c4cccc(NS(C)(=O)=O)c4)cc23)c1` was tested, and the Potency was inconclusive: 31.6 µM [inhibitor, partial curve, poor fit]. `c1ccc(Nc2ncnc3ccc(-c4cccnc4)cc23)cc1` was tested, and the Potency was inconclusive: 12.6 µM [inhibitor, partial curve]. For `CCCOc1ccc(/C=N/Nc2ccccc2[N+](=O)[O-])c(O)c1`, the Potency was inconclusive: 39.8 µM [inhibitor, single point]. For `C=C[C@@]1(C)CC(=O)[C@@]2(O)[C@@]3(C)[C@@H](O)CCC(C)(C)[C@@H]3[C@H](O)[C@H](OC(C)=O)[C@@]2(C)O1`, the “activity change, negative = inhibition” value was inactive: -3.21%. With `Fc1cccc(Nc2ncnc3sc4c(c23)CCC4)c1` the Potency was inconclusive: 50.1 µM [inhibitor, partial curve, poor fit]. In the case of `COc1ccc(C(=O)c2ccc(Cl)c([N+](=O)[O-])c2)cc1`, the Potency is reported as inconclusive: 17.8 µM [inhibitor, full curve]. With `CN(C)c1ccc(-c2ccc3ncnc(NCc4ccccc4)c3c2)cc1` the Potency was inconclusive: 44.7 µM [inhibitor, partial curve, poor fit]. With `Cc1ccc(Nc2ncnc3sc(C)c(C)c23)cc1` the Potency was inconclusive: 39.8 µM [inhibitor, single point]. In the case of `Cc1cc2nc3ccc(=[N+](C)C)cc-3sc2cc1N`, the Potency is reported as inconclusive: 14.1 µM [activator, partial curve]. In the case of `CC1(C)OC(c2ccccc2)=C/C(=C/C=C2C(=O)c3ccccc3C2=O)O1`, the “activity change, negative = inhibition” value is reported as inactive: -12.1%. In the case of `COc1ccc(N=C2C(=Nc3ccc(OC)cc3)N(c3ccccc3)C(=S)N2C(=O)c2ccc(Cl)cc2)cc1`, the “activity change, negative = inhibition” value is reported as inactive: -10.1%. `O=C(Nc1nc(-c2ccccc2)cs1)c1ccc(N2CCOCC2)c([N+](=O)[O-])c1` was tested, and the Potency was inconclusive: 44.7 µM [inhibitor, partial curve, poor fit].
